Source: publication PMC6662813
Results are given in words; binding and its absence hold for the method and conditions named. In cells and extracts the contact can be indirect. Some entries that bind do so weakly or less than the wild type.

Target: cMyc-cRaf (mouse) (UniProt Q99N57)
Test: co-IP; HEK293T expressing Flag-Crabp1-HA and cMyc-cRaf, with or without atRA for 15 min; lysates precipitated with anti-cMyc antibody; western blot

B1: Kinase suppressor of Ras (Ksr1), endogenous in HEK293T (protein, UniProt Q8IVT5 1-923)
chain: MDRAALRAAAMGEKKEGGGGGDAAAAEGGAGAAASRALQQCGQLQKLIDISIGSLRGLRTKCAVSNDLTQQEIRTLEAKLVRYICKQRQCKLSVAPGERTPELNSYPRFSDWLYTFNVRPEVVQEIPRDLTLDALLEMNEAKVKETLRRCGASGDECGRLQYALTCLRKVTGLGGEHKEDSSWSSLDARRESGSGPSTDTLSAASLPWPPGSSQLGRAGNSAQGPRSISVSALPASDSPTPSFSEGLSDTCIPLHASGRLTPRALHSFITPPTTPQLRRHTKLKPPRTPPPPSRKVFQLLPSFPTLTRSKSHESQLGNRIDDVSSMRFDLSHGSPQMVRRDIGLSVTHRFSTKSWLSQVCHVCQKSMIFGVKCKHCRLKCHNKCTKEAPACRISFLPLTRLRRTESVPSDINNPVDRAAEPHFGTLPKALTKKEHPPAMNHLDSSSNPSSTTSSTPSSPAPFPTSSNPSSATTPPNPSPGQRDSRFNFPAAYFIHHRQQFIFPVPSAGHCWKCLLIAESLKENAFNISAFAHAAPLPEAADGTRLDDQPKADVLEAHEAEAEEPEAGKSEAEDDEDEVDDLPSSRRPWRGPISRKASQTSVYLQEWDIPFEQVELGEPIGQGRWGRVHRGRWHGEVAIRLLEMDGHNQDHLKLFKKEVMNYRQTRHENVVLFMGACMNPPHLAIITSFCKGRTLHSFVRDPKTSLDINKTRQIAQEIIKGMGYLHAKGIVHKDLKSKNVFYDNGKVVITDFGLFGISGVVREGRRENQLKLSHDWLCYLAPEIVREMTPGKDEDQLPFSKAADVYAFGTVWYELQARDWPLKNQAAEASIWQIGSGEGMKRVLTSVSLGKEVSEILSACWAFDLQERPSFSLLMDMLEKLPKLNRRLSHPGHFWKSADINSSKVVPRFERFGLGVLESSNPKM
Q: Which binding does the source give for B1 here?
A: binds
